# Percent effect of library compounds

Values are the deposited “Percent Effect”, in %.
How 0% and 100% were set is not recorded. Most values in the screen are low, and negative values occur.
The compounds are a random part of those screened.

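Phenotypic screen: M. tuberculosis growth, glucose 7H9 medium, 3 days; the read-out is not stated. Concentration: 500 µM. Higher reads as more growth inhibition (inferred: compounds with an IC50 in retests scored well above the rest). Of about 18,000 compounds tested this way, about 1,400 (7.9%) reached 50% or more in at least one test.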

Result for c1ccc(CNCCNC2CC2)cc1 was 10.08%.
Result for CCNC(=O)COc1cccc(NC(=O)NC)c1 was 21.12%.
Result for COC1(c2noc(-c3cnccn3)n2)CCC1 was 18.83%.
Result for CC(=O)NC(c1nc(-c2ccncc2)no1)C(C)C (stereo not shown) was 27.23%.
Result for COCCCNC(=O)CN1CCC2(CC1)OCCO2 was 2.019%.
Result for NCc1ccc2c(c1)OCCO2 was -3.474%.
Result for COc1ccc(NC(=O)CSc2ncnc(N)n2)cc1 was 6.5%.
Result for NC(=O)c1ccc2c(n1)NCCC2 was 10.15%.
Result for COC1CCCN(C(=O)c2ccccc2C(C)=O)C1 (stereo not shown) was -7.609%.
Result for COc1cccc(NC(=O)CN2CCCNCC2)c1 was 14.49%.
Result for NC(=O)CNC(=O)c1cc(Cl)ccc1OC1CCCC1 was -15.93%.
Result for Cc1[nH][nH]c(=O)c1CCN was 40.63%.
Result for CNC(C)c1ccccc1N1CCCS1(=O)=O (stereo not shown) was 7.791%.
Result for CC(=O)OCc1cc(=O)n2ccsc2n1 was 2.896%.
Result for Cc1nnc(C(C)NC(=O)c2ccc(CO)cc2)o1 (stereo not shown) was -2.334%.
Result for COCCn1cnnc1SCC(C)C was 28.91%.
Result for Cc1cccc(C2CCCN2CCNS(C)(=O)=O)n1 (stereo not shown) was -5.94%.
Result for CCCn1c(C)nnc1CSc1ncnn1C was -10.87%.
Result for COCCCOc1ccc2c(c1)OCCO2 was 63.15%.
Result for CC(C)(C)C(=O)N1CCN(C(=O)[C@@H](N)C(C)(C)C)CC1 was -4.931%.
Result for NC(=O)CN1CCCN(Cc2ccccc2)CC1 was -0.7916%.
Result for CSCc1ccc(C(=O)NCCc2ncnn2C)o1 was -8.333%.
Result for Nc1nccnc1C(=O)NCc1cc(Br)cs1 was 89.32%.
Result for c1csc(C2CNCCO2)c1 (stereo not shown) was 4.549%.
Result for CCN1CC(C(=O)NCCCc2cnn(C)c2)CC1=O (stereo not shown) was 6.846%.
Result for COCCOc1ccc(NC(=O)CSC(C)(C)C)cn1 was -154.2%.
Result for O=C(Nc1cccc(-n2cccn2)c1)N1CCSCC1 was 66.88%.
Result for Cc1cc(C(=O)NCC(O)c2ccccc2Cl)no1 (stereo not shown) was 57.8%.
Result for CN(C)S(=O)(=O)c1ccc2c(c1)OCCCO2 was 3.779%.
Result for CS(=O)(=O)N1CCC(N)C1 (stereo not shown) was -14.21%.
Result for Cc1cnn(CC(C)NCCCS(C)(=O)=O)c1 (stereo not shown) was 3.691%.
Result for Brc1cncc(NCCOCC2CCCO2)c1 (stereo not shown) was 48.68%.
Result for COc1cccc(-n2nnc(C(=O)NC3CC3)c2C)c1 was 65.87%.
Result for CC(C)c1noc(CCC(=O)NC2CC2)n1 was 0.2106%.
Result for Cc1n[nH]c(C)c1CN1CCCC2(CCNCC2)CC1 was -0.2951%.
Result for CN(C)Cc1cccc(CNc2ncccc2C#N)c1 was 28.59%.

For reference, 2 entries once more:

compound,effect
CNC(C)c1ccccc1N1CCCS1(=O)=O (stereo not shown),7.791%
CCCn1c(C)nnc1CSc1ncnn1C,-10.87%

The values are deposited in ChEMBL (CHEMBL3988442, “University of Dundee, Small-Polar-MMV Screening Library” (2021)).